Test results published in PubChem BioAssay AID1347426 (Functional Genomics Laboratory (NCATS/FGL), 2020).
Among all 31,000 sequences or so, about 1,400 (4.5%) were called active.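 The calls were made as follows: active = median seed-adjusted z-score above 1 or below -1; inactive = the rest.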 The list shows a part of the results.

assay: Novel Modifiers of Survival Motor Neuron (SMN) Protein: Gene Identification via Genome-wide siRNA Screen; settings: HEK293T SMN2-luciferase reporter, siRNA knockdown, 72 h; actives lie on both sides;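 also: luminescence tracks full-length SMN protein made from the SMN2 reporter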
How it was run: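 Luciferase signal, proportional to full-length SMN made from an SMN2 cDNA reporter in stable HEK293T cells, was read 72 h after siRNA reverse transfection. Values were expressed as MAD scores after non-targeting-control normalization and log10 conversion; seed analysis flagged off-targets.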

Sequence | median seed-adjusted z-score
GGAAUAAUGCUGACCAAGATT against GART | inactive: -0.414
GGUUCACAAUCUAUACAGUTT against JMJD1B | inactive: 0.402
CUCUCACAGUGGCCUGUAATT against S100A1 | inactive: 0
GCUGCAAAAUCCGAUGAGATT against HSPB1 | inactive: 0.693
GGUGAUAACUCAUCCUGUATT against ZFP28 | inactive: 0.275
GAAGAUCUAUUUUGCGGAUTT against PSMC3IP | inactive: -0.0482
GAGUCUGCGUUAUCGACAATT against TPR | active: -1.03
GAGCAAGAGUUUAACCGGUTT against AOF2 | inactive: -0.215
CGUUAUGUUUUUACCCUAUTT against CATSPER3 | inactive: 0.685
GCAUGACCUUCAUCGUACATT against SLC34A2 | inactive: 0
GGAUCGUCAUGUAUACUUATT against GPRC5C | inactive: 0.498
CGAACAAGAUGACCAGGUATT against ARRB2 | inactive: -0.153
CCGCAAAACUCCUACAGCATT against HDAC5 | inactive: -0.342
AGGAUACAUUGGAAAAGAUTT against SMYD1 | inactive: -0.0827
CCAGUAUCUUGAUAUCAGUTT against TLR1 | inactive: 0
GCCUGGUUUUGGAUACAAATT against LTA4H | inactive: -0.742
CGACCAGGCUAACACGCUUTT against KCNN1 | inactive: -0.347
CCGUGCUAUUCAUCGCAAATT against ACTR1B | inactive: -0.18
CAACGACAGCAGUCCCAUUTT against EGR1 | inactive: 0.0836
GCCGAAUUGUUUCUAGUUATT against PIN1 | inactive: 0.156
GGUGAUCCCUGAGCAUCUATT against AS3MT | inactive: -0.74
GGAAACUCGUCGUUCAAUATT against IL13RA1 | inactive: 0.269
GGACUGUUCAUGUAGUACATT against ELF1 | inactive: 0.0269
GACCUCGAAUGAAUGCGAATT against CRY1 | inactive: 0.0564
CCAGGUGUAUUCAAUGGAATT against FMO3 | inactive: -0.0769
GAGCAAAGGGUAUCCGGAATT against PIAS3 | inactive: -0.216
GCAGUCGGCUUUGAUUAUATT against HCLS1 | inactive: 0.107

Sequence | median seed-adjusted z-score
CAACAAGUGUAACGACGAUTT against SMPD3 | inactive: -0.0115
UGAUGGAGAUCGUCACCUATT against HCK | inactive: -0.48
GGGUAUGAGAUAUGCGGUATT against TYW1 | inactive: 0.201
CAUCGAAACUUUACCUAAATT against NAP1L4 | inactive: -0.244
GGUACAAGCUCGAGGUAUATT against B4GALT6 | inactive: 0.224
CAGUAGUGUUGGUAGACCATT against HADH | active: 1.11
GCACUGUCAGUUACACCAATT against DDR2 | inactive: 0.252
GGCCUGUAAGGAGCACUCATT against CABP7 | inactive: -0.268
CACCCAGUCUAGUAACGAUTT against DSCAM | inactive: -0.527
CCCAGUCUGUGAAACCGAATT against JMJD3 | inactive: 0.871
GAGAGGUACCAGACCAUGATT against POLM | active: -1.55
GGCGAACCACCUGAACAAATT against TGM2 | inactive: 0.413
GUCACUGACUUUUACCGCATT against EXTL3 | inactive: -0.353
GUAGAACUCUAAUGAAGAATT against NEUROG1 | inactive: 0.485
ACAGUUUACUCAGCACUAATT against KLF11 | inactive: 0.158
GCACGUGCACUAUAACACUTT against NSUN6 | inactive: 0.428
GGAGUUGCCUUUGACCACATT against ELAC2 | inactive: 0.016
CUAUAGCUCUUUCAACAAUTT against RORB | inactive: 0.044
GCACUAGUAUAUUCUAUUATT against RAP1A | inactive: 0.276
CGUAGACAAUGAAACCGAATT against ATP13A3 | inactive: -0.619
CGAGCUAGCUCUAACACCATT against RALGDS | inactive: -0.235
CAAGUUCAAUGGUGUCUGATT against RELT | inactive: 0.349
GCUCCUACAUCUACGAGAATT against CRIP2 | inactive: -0.226
ACUAGCCUGUGGAGCAAGATT against HBE1 | inactive: -0.425
GGUGAUCACCAAGAUCAAATT against ADCY3 | inactive: -0.294
AAAUUUCCACUAGCGAAAATT against RASL11A | inactive: -0.294
GACUACCUGUUGGACCUCATT against NDOR1 | inactive: 0.328

Rewritten as tab-separated lines: part of the list above.
Sequence	median seed-adjusted z-score
GGAAUAAUGCUGACCAAGATT against GART	inactive: -0.414
GGUUCACAAUCUAUACAGUTT against JMJD1B	inactive: 0.402
